Measured values reported in the M2OR odorant receptor database.
Only a part is listed here, and it is no random draw. The calls were merged from several studies; some rest on single wells. This is one part of the list.

What was measured:
Conditions in all cases: stereoisomer not certain
OR52K2 (Homo sapiens) = target: T1, OR52K2 (Homo sapiens) (UniProt Q8NGK3)
T1 sequence (whole entry): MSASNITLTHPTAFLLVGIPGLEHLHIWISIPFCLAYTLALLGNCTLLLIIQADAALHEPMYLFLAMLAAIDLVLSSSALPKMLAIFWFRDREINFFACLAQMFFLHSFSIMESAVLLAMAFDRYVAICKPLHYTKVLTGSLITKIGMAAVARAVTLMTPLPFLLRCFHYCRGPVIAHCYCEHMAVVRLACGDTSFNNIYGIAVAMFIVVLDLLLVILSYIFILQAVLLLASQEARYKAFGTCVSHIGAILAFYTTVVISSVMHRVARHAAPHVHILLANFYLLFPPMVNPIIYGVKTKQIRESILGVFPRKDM
In short: (§1)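 Values were gathered from published papers (main text and supplementary material), with extra details requested from the original authors when needed, and checked for typos and inconsistencies. Each receptor–molecule pair is called responsive (active) if the original authors judged the measured signal statistically different from baseline, and non-responsive (inactive) otherwise. Assay methods varied by source, often transient mammalian cell-line luciferase assays. Recorded details include cell line, G-protein, co-transfected protein and tags.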

OR52N5 (Homo sapiens) = target: T2, OR52N5 (Homo sapiens) (UniProt Q8NH56)
T2 sequence (whole entry): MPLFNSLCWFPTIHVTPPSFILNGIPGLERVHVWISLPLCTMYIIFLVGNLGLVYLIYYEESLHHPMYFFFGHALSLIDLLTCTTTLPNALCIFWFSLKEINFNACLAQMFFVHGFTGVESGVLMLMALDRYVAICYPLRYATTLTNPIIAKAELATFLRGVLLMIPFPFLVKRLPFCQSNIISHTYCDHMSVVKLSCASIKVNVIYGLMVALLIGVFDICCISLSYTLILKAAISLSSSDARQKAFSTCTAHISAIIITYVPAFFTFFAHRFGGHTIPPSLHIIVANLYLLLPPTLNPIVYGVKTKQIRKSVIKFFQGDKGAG
In short: as §1

OR56A1 (Homo sapiens) = target: T3, OR56A1 (Homo sapiens) (UniProt Q8NGH5)
T3 sequence (whole entry): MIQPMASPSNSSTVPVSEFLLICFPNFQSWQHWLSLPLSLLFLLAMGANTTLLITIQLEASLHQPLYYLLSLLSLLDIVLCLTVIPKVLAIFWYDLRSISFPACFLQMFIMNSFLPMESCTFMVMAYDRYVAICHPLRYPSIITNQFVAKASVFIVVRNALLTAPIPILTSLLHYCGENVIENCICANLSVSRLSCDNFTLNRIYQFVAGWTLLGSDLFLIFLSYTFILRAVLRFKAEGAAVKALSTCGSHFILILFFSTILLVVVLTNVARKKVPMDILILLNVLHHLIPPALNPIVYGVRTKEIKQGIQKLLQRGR
In short: as §1

OR56A4 (Homo sapiens) = target: T4, OR56A4 (Homo sapiens) (UniProt Q8NGH8)
T4 sequence (whole entry): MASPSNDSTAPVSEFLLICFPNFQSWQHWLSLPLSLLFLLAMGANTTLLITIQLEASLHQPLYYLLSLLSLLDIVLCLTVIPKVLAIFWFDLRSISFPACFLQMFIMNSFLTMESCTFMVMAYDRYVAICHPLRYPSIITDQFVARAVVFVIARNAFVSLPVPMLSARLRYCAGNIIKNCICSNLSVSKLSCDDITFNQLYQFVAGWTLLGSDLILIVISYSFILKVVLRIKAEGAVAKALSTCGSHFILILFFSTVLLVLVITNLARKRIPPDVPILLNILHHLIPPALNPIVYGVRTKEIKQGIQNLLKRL
In short: as §1

OR56A5 (Homo sapiens) = target: T5, OR56A5 (Homo sapiens) (UniProt P0C7T3)
T5 sequence (whole entry): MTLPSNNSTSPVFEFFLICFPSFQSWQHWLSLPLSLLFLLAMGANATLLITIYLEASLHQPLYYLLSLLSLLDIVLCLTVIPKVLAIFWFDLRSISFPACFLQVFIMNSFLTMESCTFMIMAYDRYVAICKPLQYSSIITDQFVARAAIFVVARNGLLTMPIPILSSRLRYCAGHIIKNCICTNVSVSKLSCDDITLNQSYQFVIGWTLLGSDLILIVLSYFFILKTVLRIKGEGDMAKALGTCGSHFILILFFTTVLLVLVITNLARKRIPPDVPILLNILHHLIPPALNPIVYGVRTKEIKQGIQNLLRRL
In short: as §1

OR5A1 [1] = system: T6, OR5A1
T6 sequence (whole entry): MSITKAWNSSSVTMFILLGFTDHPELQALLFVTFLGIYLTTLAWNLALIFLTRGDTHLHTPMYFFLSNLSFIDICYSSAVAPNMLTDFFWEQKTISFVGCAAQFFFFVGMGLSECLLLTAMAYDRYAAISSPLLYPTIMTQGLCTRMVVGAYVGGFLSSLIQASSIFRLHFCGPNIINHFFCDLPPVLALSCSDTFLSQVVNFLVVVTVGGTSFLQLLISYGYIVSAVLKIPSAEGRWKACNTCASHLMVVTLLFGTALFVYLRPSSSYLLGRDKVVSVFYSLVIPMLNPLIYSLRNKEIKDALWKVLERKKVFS
In short: as §1

OR5A1 [2] = system: T7, OR5A1; remark: listed apart in the source
T7 sequence (whole entry): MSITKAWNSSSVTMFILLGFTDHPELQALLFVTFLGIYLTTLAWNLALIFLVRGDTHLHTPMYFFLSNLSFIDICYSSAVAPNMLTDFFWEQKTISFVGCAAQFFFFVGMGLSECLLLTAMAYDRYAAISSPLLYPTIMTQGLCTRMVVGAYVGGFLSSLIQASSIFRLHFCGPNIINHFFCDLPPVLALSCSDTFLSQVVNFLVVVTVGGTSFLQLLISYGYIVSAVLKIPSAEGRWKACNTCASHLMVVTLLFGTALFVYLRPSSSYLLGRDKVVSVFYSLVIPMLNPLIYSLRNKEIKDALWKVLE
In short: as §1

OR5A1 [3] = system: T8, OR5A1; remark: listed apart in the source
T8 sequence (whole entry): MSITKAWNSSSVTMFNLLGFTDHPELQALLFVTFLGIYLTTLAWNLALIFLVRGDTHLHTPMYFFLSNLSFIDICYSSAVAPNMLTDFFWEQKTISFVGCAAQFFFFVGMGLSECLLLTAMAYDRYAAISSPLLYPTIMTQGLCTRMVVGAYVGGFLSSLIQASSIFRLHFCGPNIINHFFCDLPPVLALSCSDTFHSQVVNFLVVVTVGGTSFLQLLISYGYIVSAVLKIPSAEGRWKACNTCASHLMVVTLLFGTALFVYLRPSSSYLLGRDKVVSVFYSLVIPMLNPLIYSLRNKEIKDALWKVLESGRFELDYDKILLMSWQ
In short: as §1

OR5A2 (Homo sapiens) = target: T9, OR5A2 (Homo sapiens) (UniProt Q8NGI9)
T9 sequence (whole entry): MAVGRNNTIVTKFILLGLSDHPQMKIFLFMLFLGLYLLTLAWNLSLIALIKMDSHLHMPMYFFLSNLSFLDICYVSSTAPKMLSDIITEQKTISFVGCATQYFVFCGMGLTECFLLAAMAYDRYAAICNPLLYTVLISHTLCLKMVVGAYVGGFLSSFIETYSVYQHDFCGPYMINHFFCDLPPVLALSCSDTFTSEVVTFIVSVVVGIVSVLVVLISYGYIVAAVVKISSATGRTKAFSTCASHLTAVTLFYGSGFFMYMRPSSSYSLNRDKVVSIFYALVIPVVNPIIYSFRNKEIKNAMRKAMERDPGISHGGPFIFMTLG
In short: as §1

OR5AK2 (Homo sapiens) = target: T10, OR5AK2 (Homo sapiens) (UniProt Q8NH90)
T10 sequence (whole entry): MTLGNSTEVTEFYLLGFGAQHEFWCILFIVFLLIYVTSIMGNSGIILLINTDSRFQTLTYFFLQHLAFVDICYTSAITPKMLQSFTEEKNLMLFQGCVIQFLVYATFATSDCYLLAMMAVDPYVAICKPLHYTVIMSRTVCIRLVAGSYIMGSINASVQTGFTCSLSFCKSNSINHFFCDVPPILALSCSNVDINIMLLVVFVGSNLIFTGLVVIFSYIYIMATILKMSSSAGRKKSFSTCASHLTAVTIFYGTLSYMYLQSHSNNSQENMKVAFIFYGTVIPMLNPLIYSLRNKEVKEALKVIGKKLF
In short: as §1

Measured: odorant receptor agonist call

CS
active: OR56A5 (Homo sapiens)
inactive: all other assays above
